No constants are given. Whether binding was seen depends on the method and setting.
Molecular target: human SH3BGRL (human), O75368
Test: AUC; sedimentation velocity of each SH3BGRL isoform alone; 50,000 rpm, 20 °C; 25 mM HEPES pH 7.4, 50 mM NaCl, 0.5 mM TCEP; continuous c(s) model (SEDFIT); both purified
Conditions: remark: other sources report otherwise

B1: human SH3BGRL, O75368 1-114 (protein)
chain: MVIRVYIASSSGSTAIKKKQQDVLGFLEANKIGFEEKDIAANEENRKWMRENVPENSRPATGYPLPPQIFNESQYRGDYDAFFEARENNAVYAFLGLTAPPGSKEAEVQAKQQA
  binding: no binding
